# Results published in PubChem BioAssay AID504834 (National Center for Advancing Translational Sciences (NCATS), 2011).
# Out of some 320,000 compounds screened, about 22,000 (6.9%) were called active. This list was built around the results that the source calls inconclusive (neither active nor inactive); the mix of calls is not that of the screen. The call rests on the fitted dose curve; in most records, active means well fitted inhibition curve with a large enough effect; inconclusive means small, poorly fitted or top-dose-only effect, or another doubt; inactive means no such curve, though single readings can be large or run the other way. Potencies beside an inconclusive call are fits to weak or partial responses and may not hold up.
# Assay: Primary qHTS for delayed death inhibitors of the malarial parasite plastid, 96 hour incubation
# Conditions: P. falciparum luciferase reporter growth; series mostly up to 28.7 µM; activity change, negative = inhibition: at the top concentration
# Procedure, shortened: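 Parasite growth measured via integrated firefly luciferase reporter in P. falciparum. Infected erythrocytes at 2% hematocrit, 0.05% parasitemia final were treated 96 hours at 37 C under 5% CO2, and luminescence was read.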
# On the % scale 0 is the no-effect control and ±100 the full control effect; potency means the concentration at half of the fitted maximal effect.
Structure (SMILES),Potency,"activity change, negative = inhibition"
O=C(NNC(=O)C12CC3CC(CC(C3)C1)C2)c1ccccn1,active: 4.15 µM,
CCOC(=O)c1sc(=NC(=O)c2ccc(C)c(C)c2)n(C)c1C,,inactive: 20.4%
O=C1c2cccc3cccc(c23)C(=O)N1c1ccccn1,"inconclusive: 14.7 µM [inhibitor, single point]",
O=S(=O)(NCC1(N2CCOCC2)CCCCC1)c1ccc(Cl)cc1C(F)(F)F,"inconclusive: 18.5 µM [inhibitor, single point]",
O=C(Nc1ccc(CN2CCOCC2)cc1)c1ccc2ccccc2c1,"inconclusive: 18.5 µM [inhibitor, single point]",
Cc1c(C(=O)N2CCOCC2)oc2ccc(S(=O)(=O)N3CCCCCC3)cc12,"inconclusive: 11.7 µM [inhibitor, single point]",
COc1cnn(-c2ccccc2)c(=O)c1N(C)C,,inactive: 34.4%
Cc1cc(C(=O)Nc2c(F)cc(F)cc2Br)n(-c2ccccc2)n1,,inactive: 5.76%
COc1ccc(OC)c(/C=C2\SC(N3CCCCC3)=NC2=O)c1,,inactive: 3.24%
CCN(C(=O)CC(C)C)c1nnc(Cn2nnc3ccccc32)s1,,inactive: 34.3%
O=S(=O)(c1ccc(F)cc1)c1snnc1-c1ccccc1,"inconclusive: 11.7 µM [inhibitor, single point]",
CCCCNCCOCCOc1ccccc1-c1ccccc1,"inconclusive: 11.7 µM [inhibitor, single point]",
O=c1c2ccccc2nc2ccc(NCc3cccs3)nn12,"inconclusive: 3.7 µM [inhibitor, partial curve, poor fit]",
Cc1ccc(-c2csc(NC(=O)c3c(C)noc3C)n2)cc1,,inactive: 42.5%
COCCn1c(SCC(=O)NCC2CCCO2)nc2c(c1=O)SC(C)C2 (stereo unspecified),"inconclusive: 10.4 µM [inhibitor, partial curve, poor fit]",
COc1ccccc1N(CC(=O)N(C)Cc1ccccc1)S(=O)(=O)c1cccs1,"inconclusive: 9.28 µM [inhibitor, single point]",
CCCN1C2CCCC1CC(NC(C)=O)C2 (stereo unspecified),"inconclusive: 16.5 µM [inhibitor, single point]",
COc1cccc(CNC(=O)c2ccc(CS(=O)(=O)Cc3ccc(C)cc3)o2)c1,"inconclusive: 5.22 µM [inhibitor, partial curve, poor fit]",
COc1ccc(N(CC(=O)NCCC2=CCCCC2)S(=O)(=O)c2ccc(C)cc2)cc1,"inconclusive: 18.5 µM [inhibitor, single point]",
COC(=O)c1cc2ccccc2c(=O)s1,,inactive: 5.84%
Cc1ccc(-c2nn(-c3ccccc3)cc2C(=O)O)o1,,inactive: 53.2%

# Shown bar-delimited: part of the list above.
Structure (SMILES) | Potency | activity change, negative = inhibition
O=S(=O)(c1ccc(F)cc1)c1snnc1-c1ccccc1 | inconclusive: 11.7 µM [inhibitor, single point] | 
Cc1ccc(-c2csc(NC(=O)c3c(C)noc3C)n2)cc1 |  | inactive: 42.5%
